# From paper PMC3970758, “A conserved MCM single-stranded DNA binding element is essential for replication initiation”
# Residue numbers refer to the chain shown, from its start. The exact form of at least one protein or probe is not confirmed. At least one verdict rests on a figure or table, not on a statement of the authors. Where a protein sequence is shown, tags need not be part of it.
# Columns and labels:
# [1] = molecular target: T1, PfMCMN F202A (Pyrococcus furiosus) (UniProt Q8U3I4); assay: EMSA; details: 5 mM Mg2+; EMSA: 20 mM HEPES pH 7.6, 200 mM NaCl, 5 mM MgCl2, 5 mM bME, 25 C, 30 min, 160 nM DNA; 4-20% TBE PAGE; recombinant protein; residues 1-256; protein details: His6-SUMO removed by Ulp1; label: 5'-fluorescein on strand 1
# T1 sequence (looked up): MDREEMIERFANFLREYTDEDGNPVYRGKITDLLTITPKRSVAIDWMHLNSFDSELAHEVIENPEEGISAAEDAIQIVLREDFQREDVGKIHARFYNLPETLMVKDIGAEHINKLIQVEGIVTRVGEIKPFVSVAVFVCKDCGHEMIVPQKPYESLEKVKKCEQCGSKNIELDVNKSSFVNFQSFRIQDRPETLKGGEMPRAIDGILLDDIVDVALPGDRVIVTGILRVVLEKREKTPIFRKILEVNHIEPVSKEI
# [2] = molecular target: T2, PfMCMN K233A (Pyrococcus furiosus) (UniProt Q8U3I4); assay: EMSA; details: 5 mM Mg2+; EMSA: 20 mM HEPES pH 7.6, 200 mM NaCl, 5 mM MgCl2, 5 mM bME, 25 C, 30 min, 160 nM DNA; 4-20% TBE PAGE; recombinant protein; residues 1-256; protein details: His6-SUMO removed by Ulp1; label: 5'-fluorescein on strand 1
# T2 sequence (looked up): T1 sequence (looked up) with A202F, K233A
sequence,measurement,setting,value
ATGGCAGATCTCAATTGGATATCGGC (double strand) [26-mer dsDNA],binding result,[1],binds
same,binding result,[2],binds
